# Reference: the supplement of paper PMC8728848
# Some of the results follow.
# B1: Actd5 (Actinidia), P84527 (protein)
# chain: ISSCNGPCRDLNDCDGQLICIKGKCNDDPQVGTHICRGTTHSHQPGGCKPSGTLTCRGKSYPTYDCSPPVTSSTPAKLTNNDFSEGGDDGGPSECDESYHNNNERIVALSTGWYNGGSRCGKMIRITASNGKSVSAKVVDECDSRHGCDKEHAGQPPCRNNIVDGSNAVWSALGLDKNVGVVDITWSMA
# What was measured:
# Assay in all cases: glycan array binding signal (z-score within array); higher = stronger binding
# Settings in all cases: glycan notation: IUPAC condensed, linker removed
# Fuc(a1-2)Gal = molecular target: Fuc(a1-2)Gal
# Method in brief: (§1)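 Arrays were curated from the Consortium for Functional Glycomics database, 3228 in total, and kept only where the protein sequence was available. Binding is expressed as a within-array Z-score. This score was averaged across arrays of the same protein sequence at different concentrations or buffers and across linkers, and negative values can be read as non-binding.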
# Fuc(a1-2)Gal(b1-3)GalNAc = molecular target: Fuc(a1-2)Gal(b1-3)GalNAc
# Method in brief: as §1
# [1] = molecular target: Fuc(a1-2)Gal(b1-3)GalNAc(a1-3)[Fuc(a1-2)]Gal(b1-4)Glc
# Method in brief: as §1
# [2] = molecular target: Fuc(a1-2)Gal(b1-3)GalNAc(a1-3)[Fuc(a1-2)]Gal(b1-4)GlcNAc
# Method in brief: as §1
# [3] = molecular target: Fuc(a1-2)Gal(b1-3)GalNAc(b1-3)Gal
# Method in brief: as §1
# [4] = molecular target: Fuc(a1-2)Gal(b1-3)GalNAc(b1-3)Gal(a1-4)Gal(b1-4)Glc
# Method in brief: as §1
# [5] = molecular target: Fuc(a1-2)Gal(b1-3)GalNAc(b1-4)[Neu5Ac(a2-3)]Gal(b1-4)Glc
# Method in brief: as §1
# Fuc(a1-2)Gal(b1-3)GlcNAc = molecular target: Fuc(a1-2)Gal(b1-3)GlcNAc
# Method in brief: as §1
# [6] = molecular target: Fuc(a1-2)Gal(b1-3)GlcNAc(b1-2)Man(a1-3)[Fuc(a1-2)Gal(b1-3)GlcNAc(b1-2)Man(a1-6)]Man(b1-4)GlcNAc(b1-4)GlcNAc
# Method in brief: as §1
# [7] = molecular target: Fuc(a1-2)Gal(b1-3)GlcNAc(b1-2)Man(a1-3)[Fuc(a1-2)Gal(b1-3)GlcNAc(b1-2)Man(a1-6)]Man(b1-4)GlcNAc(b1-4)[Fuc(a1-6)]GlcNAc
# Method in brief: as §1
# [8] = molecular target: Fuc(a1-2)Gal(b1-3)GlcNAc(b1-3)Gal(b1-4)Glc
# Method in brief: as §1
# [9] = molecular target: Fuc(a1-2)Gal(b1-3)GlcNAc(b1-3)GalNAc
# Method in brief: as §1
# [10] = molecular target: Fuc(a1-2)Gal(b1-3)GlcNAc(b1-3)[Fuc(a1-2)Gal(b1-3)GlcNAc(b1-6)]GalNAc
# Method in brief: as §1
# [11] = molecular target: Fuc(a1-2)Gal(b1-3)GlcNAc(b1-3)[Gal(b1-4)GlcNAc(b1-6)]Gal(b1-4)Glc
# Method in brief: as §1
# [12] = molecular target: Fuc(a1-2)Gal(b1-3)GlcNAc(b1-3)[Neu5Ac(a2-6)Gal(b1-4)GlcNAc(b1-6)]Gal(b1-4)Glc
# Method in brief: as §1
# [13] = molecular target: Fuc(a1-2)Gal(b1-3)GlcNAc6S
# Method in brief: as §1
# [14] = molecular target: Fuc(a1-2)Gal(b1-3)[Fuc(a1-4)]GlcNAc
# Method in brief: as §1
# [15] = molecular target: Fuc(a1-2)Gal(b1-3)[Fuc(a1-4)]GlcNAc(b1-2)Man(a1-3)[Fuc(a1-2)Gal(b1-3)[Fuc(a1-4)]GlcNAc(b1-2)Man(a1-3)]Man(b1-4)GlcNAc(b1-4)GlcNAc
# Method in brief: as §1
# [16] = molecular target: Fuc(a1-2)Gal(b1-3)[Fuc(a1-4)]GlcNAc(b1-2)Man(a1-3)[Fuc(a1-2)Gal(b1-3)[Fuc(a1-4)]GlcNAc(b1-2)Man(a1-6)]Man(b1-4)GlcNAc(b1-4)[Fuc(a1-6)]GlcNAc(b1-4)[Fuc(a1-6)]GlcNAc
# Method in brief: as §1
# [17] = molecular target: Fuc(a1-2)Gal(b1-3)[Fuc(a1-4)]GlcNAc(b1-3)[Fuc(a1-3)[Gal(b1-4)]GlcNAc(b1-6)]Gal(b1-4)Glc
# Method in brief: as §1
# [18] = molecular target: Fuc(a1-2)Gal(b1-3)[Fuc(a1-4)]GlcNAc(b1-3)[Gal(b1-4)GlcNAc(b1-6)]Gal(b1-4)Glc
# Method in brief: as §1
# [19] = molecular target: Fuc(a1-2)Gal(b1-4)Fuc(a1-3)]GlcNAc(b1-2)Man(a1-3)[Fuc(a1-2)Gal(b1-4)[Fuc(a1-3)]GlcNAc(b1-2)Man(a1-6)]Man(b1-4)GlcNAc(b1-4)GlcNAc
# Method in brief: as §1
# Fuc(a1-2)Gal(b1-4)Glc = molecular target: Fuc(a1-2)Gal(b1-4)Glc
# Method in brief: as §1
# Fuc(a1-2)Gal(b1-4)Glc6S = molecular target: Fuc(a1-2)Gal(b1-4)Glc6S
# Method in brief: as §1
# Fuc(a1-2)Gal(b1-4)GlcNAc = molecular target: Fuc(a1-2)Gal(b1-4)GlcNAc
# Method in brief: as §1
# [20] = molecular target: Fuc(a1-2)Gal(b1-4)GlcNAc(b1-2)Man
# Method in brief: as §1
# [21] = molecular target: Fuc(a1-2)Gal(b1-4)GlcNAc(b1-2)Man(a1-3)[Fuc(a1-2)Gal(b1-4)GlcNAc(b1-2)Man(a1-6)]Man(b1-4)GlcNAc(b1-4)GlcNAc
# Method in brief: as §1
# [22] = molecular target: Fuc(a1-2)Gal(b1-4)GlcNAc(b1-2)Man(a1-3)[Fuc(a1-2)Gal(b1-4)GlcNAc(b1-2)Man(a1-6)]Man(b1-4)GlcNAc(b1-4)[Fuc(a1-6)]GlcNAc
# Method in brief: as §1
# [23] = molecular target: Fuc(a1-2)Gal(b1-4)GlcNAc(b1-2)[Fuc(a1-2)Gal(b1-4)GlcNAc(b1-4)]Man(a1-3)[Fuc(a1-2)Gal(b1-4)GlcNAc(b1-2)Man(a1-6)]Man(b1-4)GlcNAc(b1-4)GlcNAc
# Method in brief: as §1
# [24] = molecular target: Fuc(a1-2)Gal(b1-4)GlcNAc(b1-3)Gal(b1-4)GlcNAc
# Method in brief: as §1
binder,measurement,setting,value
B1,glycan array binding signal (z-score),Fuc(a1-2)Gal,-0.037
same,glycan array binding signal (z-score),Fuc(a1-2)Gal(b1-3)GalNAc,1.06
same,glycan array binding signal (z-score),[1],-0.634
same,glycan array binding signal (z-score),[2],-0.878
same,glycan array binding signal (z-score),[3],-0.603
same,glycan array binding signal (z-score),[4],-0.001
same,glycan array binding signal (z-score),[5],-0.284
same,glycan array binding signal (z-score),Fuc(a1-2)Gal(b1-3)GlcNAc,-1.01
same,glycan array binding signal (z-score),[6],0.871
same,glycan array binding signal (z-score),[7],0.511
same,glycan array binding signal (z-score),[8],0.335
same,glycan array binding signal (z-score),[9],0.233
same,glycan array binding signal (z-score),[10],-0.331
same,glycan array binding signal (z-score),[11],-0.318
same,glycan array binding signal (z-score),[12],-0.414
same,glycan array binding signal (z-score),[13],-0.761
same,glycan array binding signal (z-score),[14],0.27
same,glycan array binding signal (z-score),[15],-0.065
same,glycan array binding signal (z-score),[16],0.593
same,glycan array binding signal (z-score),[17],-0.01
same,glycan array binding signal (z-score),[18],-0.792
same,glycan array binding signal (z-score),[19],1.8
same,glycan array binding signal (z-score),Fuc(a1-2)Gal(b1-4)Glc,-1.21
same,glycan array binding signal (z-score),Fuc(a1-2)Gal(b1-4)Glc6S,0.27
same,glycan array binding signal (z-score),Fuc(a1-2)Gal(b1-4)GlcNAc,-0.749
same,glycan array binding signal (z-score),[20],0.494
same,glycan array binding signal (z-score),[21],0.283
same,glycan array binding signal (z-score),[22],1.78
same,glycan array binding signal (z-score),[23],0.52
same,glycan array binding signal (z-score),[24],-0.259

# Pulled one by one from above:
binder,measurement,setting,value
B1,glycan array binding signal (z-score),Fuc(a1-2)Gal(b1-4)GlcNAc,-0.749
same,glycan array binding signal (z-score),[21],0.283
